# Measured values as given in PubChem BioAssay AID651640 (Broad Institute, 2012).
# “And” between values parts separate entries of the source, which are not always exact repeats. Equal values may be shown once. The whole screen tested about 350,000 compounds, of which about 6,000 (1.7%) were called active. Inconclusive results, whose numbers are uncertain, are shown with a selection of clear calls. Cut-off read from the data, not from the text of the source: active = CPE inhibition above about 20% (passing the limit was not always enough); inconclusive = no clear call, values can overlap the other calls; tested in BHK-21 cells.
# Test: protection of cells from dengue 2 killing – plate reader, single concentration, primary screen (AID 651640);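 note: 0% = median of neutral control wells and 100% = median of positive control wells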
# Conditions: DENV2-infected cells, cytopathic effect rescue, at 9.99 µM, stronger effect = higher value
row,Structure (SMILES),CPE inhibition
1,O=C(Nc1ccc(F)cc1)C1COc2ccccc2O1 (stereo unspecified),inactive: -2.09%
2,CC(C)C(NC(=O)c1c(F)cccc1F)C(=O)OCN1C(=O)c2ccccc2C1=O (stereo unspecified),inconclusive: 38.5%
3,COc1ccc2c3c(n(C)c2c1)[C@@H](CO)N(CC1CCCC1)CC31CCN(C(C)=O)CC1,inactive: 4.19%
4,CCCCCCC(=O)Nc1nc(C)c(-c2csc(Nc3ccccc3OC)n2)s1,inconclusive: 33.1%
5,O=C(NCCCCNC(=O)C(F)(F)F)C(F)(F)F,inactive: 3.36%
6,CS(=O)(=O)N(CC(=O)Nc1ccc(CC#N)cc1)c1ccc(C23CC4CC(CC(C4)C2)C3)cc1,inactive: 2.87%
7,C[C@@H]1CCCCO[C@H](CN(C)Cc2ccncc2)[C@H](C)CN([C@@H](C)CO)C(=O)c2cc(NC(=O)Nc3ccc(C(F)(F)F)cc3)ccc2O1,inactive: 0.131%
8,O=C(C[C@@H]1CC[C@@H]2[C@H](COC[C@@H](O)CN2C(=O)c2ccccn2)O1)NC1CCC1,inconclusive: 25.1%
9,CCCNC(=O)[C@@]1(C)c2ccccc2C(=O)N(Cc2ccc(OC(F)(F)F)cc2)[C@H]1c1ccc(CO)cc1,active: 20.1%
10,O=C(NCc1nc2ccccc2[nH]1)C1=C[C@H](C2CC2)C[C@H](OCc2ccc(CO)cc2)O1,inactive: -12.2%
11,NS(=O)(=O)c1ccc(NC(=O)CSc2nc3ccccc3nc2N2CCOCC2)cc1,inconclusive: 23.3%
12,CC(=O)Oc1ccc(/C=N/NS(=O)(=O)c2ccccc2)cc1,inconclusive: 21%
13,C[C@H](CO)N1C[C@H](C)[C@H](CN(C)C(=O)c2ccccc2)Oc2cc(C3=CCCCC3)ccc2S1(=O)=O,active: 92.7%
14,COc1ccc(Br)cc1/C=N/NC(=O)C(c1ccncc1)N1CCOCC1 (stereo unspecified),active: 97.9%
15,COCC(=O)N1CC2(CN(C(=O)NC(C)C)C2)c2c(n(C)c3cc(OC)ccc23)[C@H]1CO,inactive: 16.7%
16,CCn1cc(C(=O)NCC(OC)OC)c(=O)c2cc(S(=O)(=O)N3CCOCC3)ccc21,inconclusive: 44.5%
17,O=C(Cn1nnnc1CN1CCOCC1)N1CCC(c2cccc(Cl)c2)C1 (stereo unspecified),inconclusive: 24.1%
18,Cc1noc(C)c1NC(=O)N[C@H]1CC[C@H](CCNC(=O)C2CC2)O[C@H]1CO,inactive: 6.41%
19,CCC(=O)N1C[C@H](C)[C@@H](OC)CN(C)C(=O)c2ccc(NC(=O)CC(F)(F)F)cc2OC[C@@H]1C,inconclusive: 50.2%
20,COCC(=O)Nc1ccc2c(c1)OC[C@H](C)NC[C@@H](C)[C@@H](OC)CN(C)C2=O,active: 24.1%
21,COc1ccccc1NC(=O)N[C@H]1CC[C@H](CCNS(=O)(=O)c2ccc(C)cc2)O[C@H]1CO,active: 21.8%
22,CC=Cc1ccc2n(c1=O)C[C@@H]1[C@@H](CO)[C@H](C(=O)NCCC)[C@H]2N1C(=O)c1ccncc1 (mixture of isomers),inconclusive: 29.9%
23,O=C(C1CC1)N1CC(=O)N2[C@H](CO)[C@H](c3ccc(C#Cc4cccc(F)c4)cc3)[C@@H]2C1,inconclusive: 22.4%

row,Structure (SMILES),CPE inhibition
1,COc1ccc(NC(=O)CC(Cc2ccc(Cl)cc2)C(=O)O)cc1 (stereo unspecified),inconclusive: 21.1%
2,CC(=O)Cn1c(CN2CCN(C(=O)c3ccco3)CC2)nc2c1c(=O)n(C)c(=O)n2C,inconclusive: 31.9%
3,O=C(NCCc1ccc(F)cc1)N[C@@H](Cc1ccccc1)C(=O)O,inconclusive: 34.4%
4,O=C(/C=C/[C@H]1O[C@@H](n2ccc(=O)[nH]c2=O)[C@H](O)[C@@H]1O)NCC1CCCO1 (stereo partly specified),inconclusive: 48.6%
5,N#CC1(Nc2ccc3c4c(cccc24)CC3)CCCCC1,inconclusive: 22.3%
6,O=C(c1ccccn1)N1C[C@@H]2[C@H](c3ccccc31)[C@@H](CO)N2C(=O)c1ccccn1,active: 68.8%
7,CO[C@H]1CN(C)C(=O)c2cc(NS(=O)(=O)CC(F)(F)F)ccc2OC[C@H](C)N(Cc2cccnc2)C[C@@H]1C,active: 37.1%
8,O=C(COC(=O)CNC(=O)c1ccccc1F)Nc1cccnc1Cl,inactive: 7.7%
9,CC(=O)Nc1ccc(NC(=O)CCCn2cnc3ccccc3c2=O)cc1,inconclusive: 64.7%
10,COC1CCN(C(=O)c2cc(COc3ccc(-n4cncn4)cc3)on2)CC1,inconclusive: 33.5%
11,CC(C)NC(=O)Nc1cccc2c1O[C@@H](CN(C)Cc1ccc(C(=O)O)cc1)[C@H](C)CN([C@H](C)CO)C2=O,inconclusive: 20.9%
12,C[C@@H]1CN([C@@H](C)CO)C(=O)c2cc(NS(=O)(=O)c3cn(C)cn3)ccc2O[C@@H](C)CCCCO[C@@H]1CN(C)C(=O)NC1CCCCC1,inconclusive: 20.2%
13,C/C=C/c1ccc([C@@H]2[C@H]3CN(Cc4ccccc4)CC(=O)N3[C@H]2CO)cc1,inactive: -4.05%
14,O=C(Nc1ccnn1C1CCN(CC(O)CO)CC1)C1CCCC1 (stereo unspecified),active: 70.8%
15,C#CCNC(=O)C1=C[C@@H](C)[C@H](CCCO)[C@@H](OCC)O1,inconclusive: 34% and inconclusive: 43.7%
16,COc1ccc(CNc2oc(-c3cccc4ccccc34)nc2C#N)cc1,inactive: -5.22%
17,CCCOc1cccc(C(=O)NC(=S)Nc2ccccc2)c1,inactive: -5.26%
18,COc1ccc(S(=O)(=O)N(C)C[C@H]2OCCCC[C@H](C)Oc3ccc(NS(C)(=O)=O)cc3C(=O)N([C@H](C)CO)C[C@@H]2C)cc1,active: 20.2%
19,C[C@@H]1CN([C@H](C)CO)C(=O)Cc2cc(NC(=O)Nc3ccc(C(F)(F)F)cc3)ccc2O[C@H]1CN(C)Cc1ccc2c(c1)OCO2,inconclusive: 35.4%
20,OCC[C@H]1C[C@@H](O)[C@H](O)[C@]2(Cc3ccccc3O2)O1,inconclusive: 64.1%
21,Cc1ccc(S(=O)(=O)Nc2ccc3c(c2)CC(=O)N([C@@H](C)CO)C[C@@H](C)[C@H](CN(C)Cc2ccncc2)O3)cc1,active: 37.4%
22,C[C@@H]1CN([C@@H](C)CO)C(=O)Cc2cc(NC(=O)Cc3ccccc3)ccc2O[C@H]1CN(C)S(=O)(=O)c1cn(C)cn1,inactive: 3.15%
23,CCC(=O)Oc1ccc(C(CC)C(CC)c2ccc(OC(=O)CC)cc2)cc1 (stereo unspecified),active: 42.5%

# Single values from the entries so far:
# CPE inhibition with C#CCNC(=O)C1=C[C@@H](C)[C@H](CCCO)[C@@H](OCC)O1 is entered as inconclusive: 34% and inconclusive: 43.7%
# CPE inhibition with COc1ccc(S(=O)(=O)N(C)C[C@H]2OCCCC[C@H](C)Oc3ccc(NS(C)(=O)=O)cc3C(=O)N([C@H](C)CO)C[C@@H]2C)cc1 is entered as active: 20.2%
# CPE inhibition with OCC[C@H]1C[C@@H](O)[C@H](O)[C@]2(Cc3ccccc3O2)O1 is entered as inconclusive: 64.1%
